{
  "sequences": {"note": "Chains of the proteins cited; added tags and fusions are not shown.", "UniProt Q15717, whole entry": "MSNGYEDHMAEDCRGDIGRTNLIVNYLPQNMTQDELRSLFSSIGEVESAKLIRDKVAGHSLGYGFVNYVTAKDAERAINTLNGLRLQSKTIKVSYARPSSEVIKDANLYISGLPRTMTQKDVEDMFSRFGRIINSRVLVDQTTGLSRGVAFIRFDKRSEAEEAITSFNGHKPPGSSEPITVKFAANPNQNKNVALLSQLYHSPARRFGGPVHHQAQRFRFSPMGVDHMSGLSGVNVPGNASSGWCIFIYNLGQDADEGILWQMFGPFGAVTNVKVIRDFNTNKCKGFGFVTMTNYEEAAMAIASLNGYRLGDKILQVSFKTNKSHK"},
  "source": "the supplement of paper PMC3741180",
  "about": "“A Novel High Throughput Biochemical Assay to Evaluate the HuR Protein-RNA Complex Formation” (PLoS ONE, 2013)",
  "note": "± gives the standard deviation of the averaged measurements. This is one part of the list. This data set is noisy: repeats of one test often differ as much as different tests do.",
  "data": [
    {"target": "HuR (ELAVL1) - TNFalpha ARE RNA complex (UniProt Q15717)", "assay": "AlphaScreen HuR-RNA complex signal Z-score relative to positive (Bi-TNF, DMSO) controls (Z-score (SD units of positive control)); higher = more complex signal", "settings": "screen stage: primary screen; compound concentration: 25 nM", "values": [
      {"smiles": "CCOc1ccc(C(=O)c2ccc(OC)c(O)c2O)cc1", "AlphaScreen HuR-RNA complex signal Z-score": 1.95},
      {"smiles": "CCCCC1=NC2(CCCC2)C(=O)N1Cc1ccc(-c2ccccc2-c2nnn[nH]2)cc1", "AlphaScreen HuR-RNA complex signal Z-score": 0.23},
      {"smiles": "CCCCOC(=O)c1ccc(N)cc1", "AlphaScreen HuR-RNA complex signal Z-score": -0.892},
      {"smiles": "O=C(Nc1ccc(C(=O)O)c(O)c1)c1ccccc1", "AlphaScreen HuR-RNA complex signal Z-score": 0.406},
      {"smiles": "CCC(CCC(C)C1CCC2C3CCC4CC(O)CCC4(C)C3CCC12C)C(C)C", "note": "(stereo unspecified)", "AlphaScreen HuR-RNA complex signal Z-score": 2.53},
      {"smiles": "NC(=O)c1ncn([C@@H]2O[C@H](CO)[C@@H](O)[C@H]2O)n1", "AlphaScreen HuR-RNA complex signal Z-score": 1.32},
      {"smiles": "CC1=CC2C(C(C)C)CCC(C)(O)C2CC1", "note": "(stereo unspecified)", "AlphaScreen HuR-RNA complex signal Z-score": 2.04},
      {"smiles": "C=NC(C(=O)NC1C(=O)N2C1SC(C)(C)C2C(=O)O)c1ccccc1", "note": "(stereo unspecified)", "AlphaScreen HuR-RNA complex signal Z-score": 2.69},
      {"smiles": "NS(=O)(=O)c1cc2c(cc1Cl)N=CNS2(=O)=O", "AlphaScreen HuR-RNA complex signal Z-score": -3.57},
      {"smiles": "CNS(=O)(=O)Cc1ccc2[nH]cc(CCN(C)C)c2c1", "AlphaScreen HuR-RNA complex signal Z-score": -1.98},
      {"smiles": "O=c1c(O)c(-c2ccc(O)c(O)c2)oc2cc(O)ccc12", "AlphaScreen HuR-RNA complex signal Z-score": 0.31},
      {"smiles": "C[C@H](N)C(=O)NC(Cc1ccccc1)C(=O)O", "note": "(mixture of isomers)", "AlphaScreen HuR-RNA complex signal Z-score": 1.74},
      {"smiles": "CN[C@H](CC(C)C)C(=O)N[C@H]1C(=O)N[C@@H](CC(N)=O)C(=O)N[C@H]2C(=O)N[C@H]3C(=O)N[C@H](C(=O)N[C@H](C(=O)O)c4cc(O)cc(O)c4-c4cc3ccc4O)[C@H](O)c3ccc(c(Cl)c3)Oc3cc2cc(c3O[C@@H]2O[C@H](CO)[C@@H](O)[C@H](O)[C@H]2O[C@H]2C[C@](C)(N)[C@H](O)[C@H](C)O2)Oc2ccc(cc2Cl)[C@H]1O", "AlphaScreen HuR-RNA complex signal Z-score": -1.41},
      {"smiles": "Cc1cc(C2CCCCC2)n(O)c(=O)c1", "AlphaScreen HuR-RNA complex signal Z-score": -3.47},
      {"smiles": "CC(C)(N=NC(C)(C)C(=N)N)C(=N)N", "AlphaScreen HuR-RNA complex signal Z-score": 2.06},
      {"smiles": "O=C(O)c1cc2cc(Cl)ccc2[nH]1", "AlphaScreen HuR-RNA complex signal Z-score": 2.06},
      {"smiles": "CC(=O)CC(=O)CCC(=O)O", "AlphaScreen HuR-RNA complex signal Z-score": 2.76},
      {"smiles": "O=C(O)c1cc(=O)c2ccccc2o1", "AlphaScreen HuR-RNA complex signal Z-score": 2.36},
      {"smiles": "COc1ccc2oc(-c3ccccc3)c(OC)c(=O)c2c1", "AlphaScreen HuR-RNA complex signal Z-score": 0.585},
      {"smiles": "COc1ccc2ccc(=O)oc2c1", "AlphaScreen HuR-RNA complex signal Z-score": 1.58},
      {"smiles": "NS(=O)(=O)c1cc(C(=O)O)c(NCc2ccco2)cc1Cl", "AlphaScreen HuR-RNA complex signal Z-score": -5.92},
      {"smiles": "CC(=O)Oc1cc(C)c2c(c1C(OC(C)=O)OC(C)=O)Oc1c(c(C)c(OC(C)=O)c3c1C(OC(C)=O)OC3=O)OC2=O", "note": "(stereo unspecified)", "AlphaScreen HuR-RNA complex signal Z-score": 2.16},
      {"smiles": "C[C@]12CC[C@H]3C(=CCc4cc(O)ccc43)[C@@H]1CCC2=O", "AlphaScreen HuR-RNA complex signal Z-score": 1.66},
      {"smiles": "C[C@]12C=CC(=O)C=C1CC[C@@H]1[C@@H]2[C@@H](O)C[C@@]2(C)[C@H]1CC[C@]2(O)C(=O)COP(=O)(O)O", "AlphaScreen HuR-RNA complex signal Z-score": 1.56},
      {"smiles": "CCCCCC/C=C\\CCCCCCCc1cccc(O)c1C(=O)O", "AlphaScreen HuR-RNA complex signal Z-score": 1.63},
      {"smiles": "N=C(N)N", "AlphaScreen HuR-RNA complex signal Z-score": 2.85},
      {"smiles": "Cc1c(C(N)=O)cc([N+](=O)[O-])cc1[N+](=O)[O-]", "AlphaScreen HuR-RNA complex signal Z-score": 2.3},
      {"smiles": "C=C[C@H]1CN2CC[C@H]1C[C@@H]2[C@@H](O)c1ccnc2ccc(OC)cc12", "AlphaScreen HuR-RNA complex signal Z-score": 5.21},
      {"smiles": "Cc1cccc(C)c1NC(=O)C1CCCCN1C", "note": "(stereo unspecified)", "AlphaScreen HuR-RNA complex signal Z-score": 1.11},
      {"smiles": "COc1ccc(C2C(=O)c3ccccc3C2=O)cc1", "AlphaScreen HuR-RNA complex signal Z-score": -0.215},
      {"smiles": "CN(C)c1ccc2nc3ccc(=[N+](C)C)cc-3sc2c1", "AlphaScreen HuR-RNA complex signal Z-score": 1.02},
      {"smiles": "COc1cc(/C=C/C(=O)N2CCC=CC2=O)cc(OC)c1OC", "AlphaScreen HuR-RNA complex signal Z-score": -0.537},
      {"smiles": "COc1cc(OC)c2c(OC)c(-c3ccc4c(c3)OCO4)c(=O)oc2c1", "AlphaScreen HuR-RNA complex signal Z-score": 1.03},
      {"smiles": "CN1C(C(=O)Nc2ccccn2)=C(O)c2sccc2S1(=O)=O", "AlphaScreen HuR-RNA complex signal Z-score": 1.34},
      {"smiles": "Cc1ncc([N+](=O)[O-])n1CC(O)CCl", "note": "(stereo unspecified)", "AlphaScreen HuR-RNA complex signal Z-score": 0.113},
      {"smiles": "CC(=O)Oc1ccc2c(c1)CC[C@@H]1[C@@H]2CC[C@]2(C)[C@@H](OC(C)=O)CC[C@@H]12", "AlphaScreen HuR-RNA complex signal Z-score": 2.13},
      {"smiles": "CCC(=O)OC1[C@@H]2CC3=C4CC(=O)O[C@@H](c5ccoc5)[C@]4(C)CCC3[C@@](C)(C2=O)[C@@H](CC(=O)OC)C1(C)C", "note": "(stereo partly specified)", "AlphaScreen HuR-RNA complex signal Z-score": 0.872},
      {"smiles": "COC(=O)C[C@H]1C(C)(C)C(=O)[C@@H]2CC3=C(CC[C@]4(C)C3=CC(=O)O[C@H]4c3ccoc3)[C@@]1(C)C2=O", "AlphaScreen HuR-RNA complex signal Z-score": -4.9},
      {"smiles": "O=C(Nc1ccccc1)c1ccccc1O", "AlphaScreen HuR-RNA complex signal Z-score": 0.312},
      {"smiles": "C=C1C(=O)[C@]23[C@H](CC[C@@H]1[C@@H]2O)[C@]12CO[C@@]3(O)[C@H](O)[C@H]1C(C)(C)CC[C@@H]2O", "AlphaScreen HuR-RNA complex signal Z-score": 1.44},
      {"smiles": "COc1cc(O)cc(O)c1C(C)=O", "AlphaScreen HuR-RNA complex signal Z-score": 0.173},
      {"smiles": "CS(=O)(=O)c1ccc(C2=C(c3ccccc3)C(=O)OC2)cc1", "AlphaScreen HuR-RNA complex signal Z-score": 1.62},
      {"smiles": "COc1ccc2c(c1OC)OC[C@@H](c1ccc(OC)c(OC)c1OC)C2", "AlphaScreen HuR-RNA complex signal Z-score": 2.2},
      {"smiles": "CN(C)CCC=C1c2ccccc2CCc2ccccc21", "AlphaScreen HuR-RNA complex signal Z-score": 0.0119},
      {"smiles": "COc1cc(Cc2cnc(N)nc2N)cc(OC)c1OC", "AlphaScreen HuR-RNA complex signal Z-score": -1.07},
      {"smiles": "C=CCc1ccc(OC(=O)c2ccccc2)c(OC)c1", "AlphaScreen HuR-RNA complex signal Z-score": 3.03},
      {"smiles": "COCC1=C(C(=O)OC(C)OC(=O)OC(C)C)N2C(=O)[C@@H](NC(=O)/C(=N\\OC)c3csc(N)n3)[C@H]2SC1", "note": "(stereo partly specified)", "AlphaScreen HuR-RNA complex signal Z-score": 1.32},
      {"smiles": "CCN(CC)CCOC(=O)C(c1ccccc1)C1CCCCC1", "note": "(stereo unspecified)", "AlphaScreen HuR-RNA complex signal Z-score": 4.13},
      {"smiles": "CC(C)CCCC(C)C1CCC2C3CCC4CCCCC4(C)C3CCC12C", "note": "(stereo unspecified)", "AlphaScreen HuR-RNA complex signal Z-score": 0.289},
      {"smiles": "COc1cc2c(cc1OC)C(=O)C(CC1CCN(Cc3ccccc3)CC1)C2", "note": "(stereo unspecified)", "AlphaScreen HuR-RNA complex signal Z-score": -1.4},
      {"smiles": "O=C(CCCN1CCC(O)(c2ccc(Br)cc2)CC1)c1ccc(F)cc1", "AlphaScreen HuR-RNA complex signal Z-score": 1.62},
      {"smiles": "CNCC[C@H](Oc1cccc2ccccc12)c1cccs1", "AlphaScreen HuR-RNA complex signal Z-score": -0.986},
      {"smiles": "CC1CCC(C(C)C)C(O)C1", "note": "(stereo unspecified)", "AlphaScreen HuR-RNA complex signal Z-score": 1.27},
      {"smiles": "CO[C@@]1(NC(=O)Cc2cccs2)C(=O)N2C(C(=O)O)=C(COC(N)=O)CS[C@@H]21", "AlphaScreen HuR-RNA complex signal Z-score": 1.93},
      {"smiles": "CN1CCC(=C2c3ccccc3CC(=O)c3sccc32)CC1", "AlphaScreen HuR-RNA complex signal Z-score": -0.277},
      {"smiles": "CC[C@H](CC[C@@H](C)[C@H]1CC[C@H]2[C@@H]3CC=C4C[C@@H](O)CC[C@]4(C)[C@H]3CC[C@]12C)C(C)C", "note": "[beta-SITOSTEROL]", "AlphaScreen HuR-RNA complex signal Z-score": 2.17},
      {"smiles": "O=c1ccc2ccccc2[nH]1", "AlphaScreen HuR-RNA complex signal Z-score": 3.01},
      {"smiles": "CCCCC[C@H](CC(=O)O)C(=O)O", "AlphaScreen HuR-RNA complex signal Z-score": 2.81},
      {"smiles": "CCCN(CCC)C(=O)C(CCC(=O)O)NC(=O)c1ccccc1", "note": "(stereo unspecified)", "AlphaScreen HuR-RNA complex signal Z-score": 0.682},
      {"smiles": "O=c1ccc2ccc(O)c(O)c2o1", "AlphaScreen HuR-RNA complex signal Z-score": 2.21},
      {"smiles": "O.O.O.O.O=C([O-])CC(O)(CC(=O)[O-])C(=O)[O-].[Li+].[Li+].[Li+]", "AlphaScreen HuR-RNA complex signal Z-score": 2.16},
      {"smiles": "O=C[C@H](O)[C@H](O)CO", "AlphaScreen HuR-RNA complex signal Z-score": 1.16},
      {"smiles": "N[C@@H](CCC(=O)N[C@@H](CCSC(CC(=O)O)C(=O)O)C(=O)NCC(=O)O)C(=O)O", "note": "(stereo partly specified)", "AlphaScreen HuR-RNA complex signal Z-score": 2.2},
      {"smiles": "COc1cc(-c2coc3cc(OC)c(OC)c(OC)c3c2=O)cc(OC)c1OC", "AlphaScreen HuR-RNA complex signal Z-score": 3.07},
      {"smiles": "C[C@]12CCC3c4ccc(OC(=O)c5ccccc5)cc4CCC3C1CCC2=O", "note": "(stereo partly specified)", "AlphaScreen HuR-RNA complex signal Z-score": 3.22},
      {"smiles": "Cn1ccnc1S", "AlphaScreen HuR-RNA complex signal Z-score": "1.43 ± 0.97"}
    ]}
  ]
}
